Measured values from US20250074957A1.
Results are given in words; binding and its absence hold for the method and conditions named. Some entries that bind do so weakly or less than the wild type.

Sequences of proteins named here, by UniProt entry; tags and fusion partners are left off. A change or cut given only in a name is not applied to a line headed by its entry.
UniProt Q96SW2: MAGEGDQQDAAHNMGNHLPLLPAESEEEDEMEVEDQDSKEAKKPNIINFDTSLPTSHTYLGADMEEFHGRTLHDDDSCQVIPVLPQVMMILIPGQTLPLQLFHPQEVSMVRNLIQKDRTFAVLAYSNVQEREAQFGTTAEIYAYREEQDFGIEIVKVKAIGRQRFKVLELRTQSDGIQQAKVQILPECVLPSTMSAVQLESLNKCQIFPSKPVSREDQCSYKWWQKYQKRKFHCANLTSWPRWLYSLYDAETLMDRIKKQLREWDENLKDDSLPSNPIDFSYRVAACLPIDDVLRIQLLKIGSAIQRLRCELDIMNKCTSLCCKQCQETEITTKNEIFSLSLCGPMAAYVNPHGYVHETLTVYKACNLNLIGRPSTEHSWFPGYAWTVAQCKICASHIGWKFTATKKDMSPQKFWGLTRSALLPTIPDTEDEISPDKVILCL

What was measured:
[1] = biological target: IKZF3 degron polypeptide, amino acids 130-189 A153M (HaloTag fusion for BRET) (Homo sapiens); assay: NanoBRET in 293T cells, 10 µM MG132, 1 µM pomalidomide or DMSO
[2] = biological target: IKZF3 degron polypeptide, amino acids 130-189 A153M (HaloTag fusion for BRET) (Homo sapiens); assay: NanoBRET at 1 µM pomalidomide and across a range of pomalidomide concentrations
[3] = biological target: FMC63-CD28-IKZF3 (HaloTag fusion for BRET); assay: NanoBRET in 293T cells with pomalidomide

Row | Substance | binding [1] | binding [2] | binding [3]
1 | CRBN V388A (Nanoluciferase fusion for BRET) (from UniProt Q96SW2 1-442) | binds | binds | 
2 | minCRBN3-NLuc (from UniProt Q96SW2 2-442) |  |  | binds
